Source: US20110045008A1
No constants are given. Whether binding was seen depends on the method and setting. Some results given as binding are weak or reduced against the parent protein; the word gives no strength.

Sequences of proteins named here, by UniProt entry; tags and fusion partners are left off. A change or cut given only in a name is not applied to a line headed by its entry. Residues count along the entry.
UniProt P05106, residues 27-788: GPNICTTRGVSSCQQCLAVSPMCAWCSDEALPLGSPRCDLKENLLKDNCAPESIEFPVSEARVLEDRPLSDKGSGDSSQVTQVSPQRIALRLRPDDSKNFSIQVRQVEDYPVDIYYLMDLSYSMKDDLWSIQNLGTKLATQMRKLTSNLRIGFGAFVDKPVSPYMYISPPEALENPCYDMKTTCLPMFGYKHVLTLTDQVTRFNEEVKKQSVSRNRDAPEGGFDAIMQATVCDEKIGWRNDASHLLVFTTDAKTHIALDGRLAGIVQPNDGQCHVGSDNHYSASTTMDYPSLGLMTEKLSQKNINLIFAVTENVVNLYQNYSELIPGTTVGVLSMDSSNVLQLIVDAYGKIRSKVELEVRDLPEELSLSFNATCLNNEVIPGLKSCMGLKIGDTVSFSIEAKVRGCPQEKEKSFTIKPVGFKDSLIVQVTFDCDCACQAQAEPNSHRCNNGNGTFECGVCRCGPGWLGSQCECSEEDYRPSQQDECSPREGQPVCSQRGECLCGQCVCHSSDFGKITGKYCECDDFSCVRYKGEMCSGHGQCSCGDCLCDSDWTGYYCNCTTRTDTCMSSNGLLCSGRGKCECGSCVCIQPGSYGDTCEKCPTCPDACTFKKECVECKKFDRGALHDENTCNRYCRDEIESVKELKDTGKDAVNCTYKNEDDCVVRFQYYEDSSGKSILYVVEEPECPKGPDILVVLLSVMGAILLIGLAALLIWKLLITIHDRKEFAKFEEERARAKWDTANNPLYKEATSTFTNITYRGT
UniProt P02671: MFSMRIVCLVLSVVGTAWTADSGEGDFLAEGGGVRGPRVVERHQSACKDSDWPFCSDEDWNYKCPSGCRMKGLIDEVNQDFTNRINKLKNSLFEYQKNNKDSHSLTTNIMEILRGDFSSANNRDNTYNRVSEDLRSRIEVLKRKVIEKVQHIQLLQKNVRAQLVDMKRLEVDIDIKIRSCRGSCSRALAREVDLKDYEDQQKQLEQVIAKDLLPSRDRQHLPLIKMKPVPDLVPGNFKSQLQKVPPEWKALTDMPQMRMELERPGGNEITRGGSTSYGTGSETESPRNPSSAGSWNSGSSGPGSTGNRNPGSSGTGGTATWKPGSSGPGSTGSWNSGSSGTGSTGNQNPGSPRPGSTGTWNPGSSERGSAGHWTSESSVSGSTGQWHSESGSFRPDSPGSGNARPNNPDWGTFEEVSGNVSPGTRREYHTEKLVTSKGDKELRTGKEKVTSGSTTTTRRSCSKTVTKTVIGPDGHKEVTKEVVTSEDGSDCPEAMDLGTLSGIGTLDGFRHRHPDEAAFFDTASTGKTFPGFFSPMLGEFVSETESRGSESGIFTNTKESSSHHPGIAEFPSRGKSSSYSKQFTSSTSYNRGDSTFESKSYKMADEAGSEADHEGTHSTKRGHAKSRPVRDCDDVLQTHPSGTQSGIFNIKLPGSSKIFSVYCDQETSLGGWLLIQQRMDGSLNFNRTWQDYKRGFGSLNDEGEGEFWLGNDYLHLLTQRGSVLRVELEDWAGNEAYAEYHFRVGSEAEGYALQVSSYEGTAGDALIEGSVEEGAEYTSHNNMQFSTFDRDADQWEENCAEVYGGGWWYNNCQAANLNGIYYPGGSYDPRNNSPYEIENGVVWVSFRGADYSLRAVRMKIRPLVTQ
UniProt P02675: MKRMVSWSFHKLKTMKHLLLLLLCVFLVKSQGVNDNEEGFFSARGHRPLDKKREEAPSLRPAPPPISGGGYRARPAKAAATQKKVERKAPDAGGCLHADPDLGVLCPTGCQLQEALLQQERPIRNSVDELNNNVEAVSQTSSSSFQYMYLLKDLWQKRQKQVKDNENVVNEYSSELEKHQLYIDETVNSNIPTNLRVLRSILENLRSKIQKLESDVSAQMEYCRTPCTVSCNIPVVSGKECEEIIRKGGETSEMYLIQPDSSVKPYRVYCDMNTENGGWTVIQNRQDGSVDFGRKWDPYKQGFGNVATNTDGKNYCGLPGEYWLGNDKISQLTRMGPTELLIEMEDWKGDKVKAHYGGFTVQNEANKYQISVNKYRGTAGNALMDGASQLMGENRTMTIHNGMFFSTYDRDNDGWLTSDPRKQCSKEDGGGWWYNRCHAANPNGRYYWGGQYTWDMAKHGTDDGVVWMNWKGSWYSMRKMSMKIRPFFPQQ
UniProt P02679: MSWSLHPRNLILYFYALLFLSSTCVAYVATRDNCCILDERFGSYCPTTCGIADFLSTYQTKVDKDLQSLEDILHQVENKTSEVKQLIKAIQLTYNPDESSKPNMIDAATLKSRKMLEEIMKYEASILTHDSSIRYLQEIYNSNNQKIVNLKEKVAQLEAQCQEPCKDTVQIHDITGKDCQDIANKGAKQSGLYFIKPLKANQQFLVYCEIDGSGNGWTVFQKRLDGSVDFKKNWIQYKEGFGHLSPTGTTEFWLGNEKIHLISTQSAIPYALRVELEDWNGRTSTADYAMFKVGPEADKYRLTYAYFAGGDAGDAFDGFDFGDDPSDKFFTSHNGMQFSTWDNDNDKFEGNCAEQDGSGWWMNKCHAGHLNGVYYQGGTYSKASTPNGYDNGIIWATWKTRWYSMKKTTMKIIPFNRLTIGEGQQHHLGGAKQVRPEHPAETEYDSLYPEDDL

T1: GPIIIa(49-66) peptide (human)
T1 sequence (peptide): CAPESIEFPVSEARVLED

T2: mouse platelet GPIIIa on wild type mouse platelets (mouse) (UniProt O54890)
T2 sequence (looked up): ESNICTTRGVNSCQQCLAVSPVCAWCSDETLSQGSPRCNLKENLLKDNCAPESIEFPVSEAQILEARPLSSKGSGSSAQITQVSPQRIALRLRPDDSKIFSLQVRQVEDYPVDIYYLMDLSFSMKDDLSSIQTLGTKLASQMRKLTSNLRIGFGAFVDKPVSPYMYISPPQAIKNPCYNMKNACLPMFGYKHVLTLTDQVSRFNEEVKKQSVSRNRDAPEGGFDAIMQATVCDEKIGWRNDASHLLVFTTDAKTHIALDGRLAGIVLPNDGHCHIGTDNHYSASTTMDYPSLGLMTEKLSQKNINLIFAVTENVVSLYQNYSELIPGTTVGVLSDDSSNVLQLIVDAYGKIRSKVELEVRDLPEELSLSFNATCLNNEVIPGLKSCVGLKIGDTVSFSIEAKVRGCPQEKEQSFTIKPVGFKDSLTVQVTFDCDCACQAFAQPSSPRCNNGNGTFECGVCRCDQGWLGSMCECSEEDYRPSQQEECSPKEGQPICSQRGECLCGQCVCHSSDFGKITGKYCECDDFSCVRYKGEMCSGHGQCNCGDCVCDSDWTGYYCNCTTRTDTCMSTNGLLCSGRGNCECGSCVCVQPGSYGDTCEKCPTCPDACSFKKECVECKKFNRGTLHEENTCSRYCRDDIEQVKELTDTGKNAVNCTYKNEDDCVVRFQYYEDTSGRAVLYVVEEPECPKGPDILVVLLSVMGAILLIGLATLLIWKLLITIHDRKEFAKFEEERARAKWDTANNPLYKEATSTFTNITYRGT

B1: scFv-A11-linker-kringle-1 (SLK) (protein, not shown: small tags and cut ends)
chain: MAEVQLLESGGGLVQPGGSLRLSCAASGFTFSSYAMSWVRQAPGKGLEWVSSITSTGMETRYADSVKGRFTISRDNSKNTLYLQMNSLRAEDTAVYYCAKGKSHFDYWGQGTLVTVSSGGGGSGGGGSGGGGSTDIQMTQSPSSLSASVGDRVTITCRASQSISSYLNWYQQKPGKAPKLLIYTASFLQSGVPSRFSGSGSGTDFTLTISSLQPEDFATYYCQQRKSYPRTFGQGTKVEIKRGSTSGGSTSGGSTSGSGSGICKTGNGKNYRGTMSKTKNGITCQKWSSTSPHRPRFSPATHPSEGLEENYCRNPDNDPQGPWCYTTDPEKRYDYCDILE
B2: scFv-A11 (scFv, not shown: small tags and cut ends)
scFv: MAEVQLLESGGGLVQPGGSLRLSCAASGFTFSSYAMSWVRQAPGKGLEWVSSITSTGMETRYADSVKGRFTISRDNSKNTLYLQMNSIRAEDTAVYYCAKGKSHFDYWGQGTLVTVSSSGGGGSGGGGSGGGGTDIQMTQSPSSISASVGDRVTITCRASQSISSYLNWYQQKPGKAPKLLIYTASFLQSGVPSRFSGSGSGTDFTLTISSLQPEDFATYYCQQRKSYPRTFGQGTKVEIKR

Legend:
[1] = biological target: platelet GPIIIa (integrin beta3) on platelets (human) (UniProt P05106); test: ELISA on coated platelets, anti-His tag detection
[2] = biological target: partially digested fibrin (human) (UniProt P02671+P02675+P02679); test: ELISA on partially plasmin-digested fibrin, 500 nM protein, anti-His tag detection
[3] = biological target: T1, GPIIIa(49-66) peptide (human); test: ELISA, coated peptide, anti-His tag detection
[4] = biological target: T2, mouse platelet GPIIIa on wild type mouse platelets (mouse); test: ELISA, coated wild type against GPIIIa-/- mouse platelets, anti-His tag detection

| Binder | binding [1] | binding [2] | binding [3] | binding [4] |
| --- | --- | --- | --- | --- |
| B1 | binds | binds |  |  |
| B2 | binds |  | binds | binds |
